Reference: PMC3814616, “BRAF inhibitors suppress apoptosis through off-target inhibition of JNK signaling” (eLife, 2013)

Key:
[1] = test system: E1A and HRAS^G12V-transformed wild-type (WT) MEFs; test: Soft agar colony formation; assay type: cell-based, mouse
[2] = test system: HRAS^G12V-transformed HaCaT cells (SCR, TKD); test: Soft agar colony formation; assay type: cell-based, human
[3] = MEF and HaCaT experiments combined

## CCCS(=O)(=O)Nc1ccc(F)c(C(=O)c2c[nH]c3ncc(Cl)cc23)c1F [PLX4720]
[1]; 1.0 μM, WT vs Craf−/− MEFs
  effect of paradoxical ERK activation, share of total colony growth advantage: 60%
[1]; [3]
  contribution of paradoxical ERK activation to total effects on tumor growth: 60–82.4%
[2]; 1.0 μM, TKD vs SCR HaCaT
  effect of JNK pathway inhibition, share of total colony formation advantage: 17.6%
[2]; [3]
  contribution of JNK inhibition to total effect of accelerated colony formation: 17.6–40%
